The values that follow are results of earlier work, collected in patent publication US10173038B2, “Retractable sheath devices, systems, and methods” (W. L. Gore & Associates, Inc., priority 2012, dated 2019).

`CC(=O)O[C@H]1C(=O)[C@@]2(C)[C@H]([C@H](OC(=O)c3ccccc3)[C@]3(O)C[C@H](OC(=O)[C@H](O)[C@@H](NC(=O)c4ccccc4)c4ccccc4)C(C)=C1C3(C)C)[C@]1(OC(C)=O)CO[C@@H]1C[C@@H]2O` [paclitaxel]: the “solubility limit in water” value (neat DI-water, room temperature) is “about 0.4 μM”. Further, where the note is “with hydroxypropyl-β-cyclodextrin at 60% (w/v in water)”, the “solubilized concentration of paclitaxel in solution” value is “approximately 4 mM”.
